From patent US20250270173A1, “PYRIDINE DERIVATIVES FOR TREATING PSYCHIATRIC DISORDERS” (GILGAMESH PHARMACEUTICALS, INC., priority 2022, published 2025)
For at least one compound, name, drawing or mass did not settle the structure.

Protein sequences, listed by entry. Tags and fused reporters are not part of them. Lines headed by an entry give the natural chain unless they say otherwise; changes in a name come on top.
UniProt P41595, whole entry, looked up: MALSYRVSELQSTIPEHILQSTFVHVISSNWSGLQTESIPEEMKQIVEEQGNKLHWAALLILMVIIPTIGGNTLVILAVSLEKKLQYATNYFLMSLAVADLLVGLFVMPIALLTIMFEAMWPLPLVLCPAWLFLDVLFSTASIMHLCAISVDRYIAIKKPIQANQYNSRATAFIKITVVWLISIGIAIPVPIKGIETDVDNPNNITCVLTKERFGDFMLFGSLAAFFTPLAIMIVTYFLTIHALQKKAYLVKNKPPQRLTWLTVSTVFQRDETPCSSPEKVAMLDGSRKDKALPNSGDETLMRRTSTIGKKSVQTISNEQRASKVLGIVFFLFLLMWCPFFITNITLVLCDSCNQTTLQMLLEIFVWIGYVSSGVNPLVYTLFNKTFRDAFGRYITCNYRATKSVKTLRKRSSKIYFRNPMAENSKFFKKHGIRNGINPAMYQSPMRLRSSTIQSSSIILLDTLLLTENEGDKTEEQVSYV
UniProt P28335: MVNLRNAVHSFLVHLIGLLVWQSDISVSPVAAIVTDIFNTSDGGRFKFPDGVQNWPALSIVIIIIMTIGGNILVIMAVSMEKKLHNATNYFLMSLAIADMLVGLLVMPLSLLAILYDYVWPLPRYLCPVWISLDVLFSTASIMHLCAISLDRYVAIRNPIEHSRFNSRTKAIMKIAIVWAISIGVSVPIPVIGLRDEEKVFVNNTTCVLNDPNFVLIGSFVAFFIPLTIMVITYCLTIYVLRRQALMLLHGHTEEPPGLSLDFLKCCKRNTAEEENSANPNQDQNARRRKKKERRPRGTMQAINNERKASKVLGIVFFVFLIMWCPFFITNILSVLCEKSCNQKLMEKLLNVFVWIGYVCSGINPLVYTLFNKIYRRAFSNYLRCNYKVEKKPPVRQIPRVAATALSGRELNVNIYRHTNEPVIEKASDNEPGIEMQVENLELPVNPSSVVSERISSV

Legend:
5-HT2B receptor = 5-HT2B receptor (Homo sapiens (Human), UniProt P41595); assay: FLIPR Ca2+ flux functional assay at 5-HT2B (HEK293); conditions: read-out: 5-HT2B EC50
5-HT2A receptor = 5-HT2A receptor (Homo sapiens (Human), UniProt P28223); assay: FLIPR Ca2+ flux functional assay at 5-HT2A (HEK293); conditions: read-out: 5-HT2A EC50
human 5-HT2C receptor = human 5-HT2C receptor (Homo sapiens (Human), UniProt P28335); assay: FLIPR Ca2+ flux functional assay at 5-HT2C (Eurofins DiscoverX); format: cell-based
5-HT1A receptor = 5-HT1A receptor (Homo sapiens (Human), UniProt P08908); assay: FLIPR Ca2+ flux functional assay at 5-HT1A (CHO cells); conditions: read-out: 5-HT1A EC50

| Structure (SMILES) | EC50 (5-HT2B receptor) [nM] | EC50 (5-HT2A receptor) [nM] | EC50 (human 5-HT2C receptor) [nM] | EC50 (5-HT1A receptor) [µM] |
| --- | --- | --- | --- | --- |
| CCCCCc1cc(OC)c(CC(C)N)cc1OC (stereo not shown) [Compound 41, reference compound] | 42 | 1.95 |  |  |
| CCC(N)Cc1cc(OC)c(C)cc1OC (stereo not shown) [Compound 39, reference compound] | 1390 | 48.9 | 288 |  |
| CCCc1cc(OC)c(CC(N)CC)cc1OC (stereo not shown) [Compound 40, reference compound] |  |  | 19.2 | 63.5 |
| CCCCCc1cc(OC)c(CCN)cc1OC [Compound 43, reference compound] | 259 |  |  |  |
| CCCCCCc1cc(OC)c(CCN)cc1OC [Compound 44, reference compound] | 716 |  |  | 30.5 |
